Measured values taken from patent publication US12729225B2, “Non-canonical SWI/SNF complex and uses thereof” (Dana-Farber Cancer Institute, Inc., priority 2018, dated 2026).

Tested on: mSWI/SNF complexes
Test: mSWI/SNF complex purification with HA-tagged baits and mass spectrometry (peptide counts)
Parameters: species or system human
[1] = 293_HA-BRD7 bait purification, mass spectrometry, total peptide count per identified protein
[2] = 293_HA-BRD7 bait purification, mass spectrometry, unique peptide count per identified protein

| Molecule | Total [1] | Unique [2] | Total (293_HA-BRD7: HA-BRD7 bait purification, total peptide count per co-purified protein) | Unique (293_HA-BRD7: HA-BRD7 bait purification, unique peptide count per co-purified protein) |
| --- | --- | --- | --- | --- |
| BCAS2 (protein, UniProt O75934 2-225, looked up) Pre-mRNA-splicing factor SPF27: AGTGLVAGEVVVDALPYFDQGYEAPGVREAAAALVEEETRRYRPTKNYLSYLTAPDYSAFETDIMRNEFERLAARQPIELLSMKRYELPAPSSGQKNDITAWQECVNNSMAQLEHQAVRIENLELMSQHGCNAWKVYNENLVHMIEHAQKELQKLRKHIQDLNWQRKNMQLTAGSKLREMESNWVSLVSKNYEIERTIVQLENEIYQIKQQHGEANKENIRQDF | 1 | 1 |  |  |
| SLC1A3 (protein, UniProt P43003 1-542, looked up) Excitatory amino acid …: MTKSNGEEPKMGGRMERFQQGVRKRTLLAKKKVQNITKEDVKSYLFRNAFVLLTVTAVIVGTILGFTLRPYRMSYREVKYFSFPGELLMRMLQMLVLPLIISSLVTGMAALDSKASGKMGMRAVVYYMTTTIIAVVIGIIIVIIIHPGKGTKENMHREGKIVRVTAADAFLDLIRNMFPPNLVEACFKQFKTNYEKRSFKVPIQANETLVGAVINNVSEAMETLTRITEELVPVPGSVNGVNALGLVVFSMCFGFVIGNMKEQGQALREFFDSLNEAIMRLVAVIMWYAPVGILFLIAGKIVEMEDMGVIGGQLAMYTVTVIVGLLIHAVIVLPLLYFLVTRKNPWVFIGGLLQALITALGTSSSSATLPITFKCLEENNGVDKRVTRFVLPVGATINMDGTALYEALAAIFIAQVNNFELNFGQIITISITATAASIGAAGIPQAGLVTMVIVLTSVGLPTDDITLIIAVDWFLDRLRTTTNVLGDSLGAGIVEHLSRHELKNRDVEMGNSVIEENEMKKPYQLIAQDNETEKPIDSETKM | 1 | 1 |  |  |
| DDX19A (protein, UniProt Q9NUU7 2-478, looked up) ATP-dependent RNA helicase …: ATDSWALAVDEQEAAVKSMTNLQIKEEKVKADTNGIIKTSTTAEKTDEEEKEDRAAQSLLNKLIRSNLVDNTNQVEVLQRDPNSPLYSVKSFEELRLKPQLLQGVYAMGFNRPSKIQENALPMMLAEPPQNLIAQSQSGTGKTAAFVLAMLSRVEPSDRYPQCLCLSPTYELALQTGKVIEQMGKFYPELKLAYAVRGNKLERGQKISEQIVIGTPGTVLDWCSKLKFIDPKKIKVFVLDEADVMIATQGHQDQSIRIQRMLPRNCQMLLFSATFEDSVWKFAQKVVPDPNVIKLKREEETLDTIKQYYVLCSSRDEKFQALCNLYGAITIAQAMIFCHTRKTASWLAAELSKEGHQVALLSGEMMVEQRAAVIERFREGKEKVLVTTNVCARGIDVEQVSVVINFDLPVDKDGNPDNETYLHRIGRTGRFGKRGLAVNMVDSKHSMNILNRIQEHFNKKIERLDTDDLDEIEKIAN | 1 | 1 |  |  |
| DDX50 (protein, UniProt Q9BQ39 1-737, looked up) ATP-dependent RNA helicase …: MPGKLLWGDIMELEAPLEESESQKKERQKSDRRKSRHHYDSDEKSETRENGVTDDLDAPKAKKSKMKEKLNGDTEEGFNRLSDEFSKSHKSRRKDLPNGDIDEYEKKSKRVSSLDTSTHKSSDNKLEETLTREQKEGAFSNFPISEETIKLLKGRGVTYLFPIQVKTFGPVYEGKDLIAQARTGTGKTFSFAIPLIERLQRNQETIKKSRSPKVLVLAPTRELANQVAKDFKDITRKLSVACFYGGTSYQSQINHIRNGIDILVGTPGRIKDHLQSGRLDLSKLRHVVLDEVDQMLDLGFAEQVEDIIHESYKTDSEDNPQTLLFSATCPQWVYKVAKKYMKSRYEQVDLVGKMTQKAATTVEHLAIQCHWSQRPAVIGDVLQVYSGSEGRAIIFCETKKNVTEMAMNPHIKQNAQCLHGDIAQSQREITLKGFREGSFKVLVATNVAARGLDIPEVDLVIQSSPPQDVESYIHRSGRTGRAGRTGICICFYQPRERGQLRYVEQKAGITFKRVGVPSTMDLVKSKSMDAIRSLASVSYAAVDFFRPSAQRLIEEKGAVDALAAALAHISGASSFEPRSLITSDKGFVTMTLESLEEIQDVSCAWKELNRKLSSNAVSQITRMCLLKGNMGVCFDVPTTESERLQAEWHDSDWILSVPAKLPEIEEYYDGNTSSNSRQRSGWSSGRSGRSGRSGGRSGGRSGRQSRQGSRSGSRQDGRRRSGNRNRSRSGGHKRSFD |  |  | 13 | 13 |
| ZNF579 (protein, UniProt Q8NAF0 1-562, looked up) Zinc finger protein 579: MDPQPPPPAQGSPPHRGRGRGRGRGRGRGRGRGRGGAGAPRAPLPCPTCGRLFRFPYYLSRHRLSHSGLRPHACPLCPKAFRRPAHLSRHLRGHGPQPPLRCAACPRTFPEPAQLRRHLAQEHAGGEVELAIERVAKETAEPSWGPQDEGSEPPTTAAAGATEEEAVAAWPETWPAGEPSTLAAPTSAAEPRESESEEAEAGAAELRAELALAAGRQEEKQVLLQADWTLLCLRCREAFATKGELKAHPCLRPEGEQEGEGGPPPRPKRHQCSICLKAFARPWSLSRHRLVHSTDRPFVCPDCGLAFRLASYLRQHRRVHGPLSLLAPLPAAGKKDDKASGARNSAKGPEGGEGAECGGASEGGEGQNGGDAAPARPPAGEPRFWCPECGKGFRRRAHLRQHGVTHSGARPFQCVRCQREFKRLADLARHAQVHAGGPAPHPCPRCPRRFSRAYSLLRHQRCHRAELERAAALQALQAQAPTSPPPPPPPLKAEQEEEGLPLPLANIKEEPPSPGTPPQSPPAPPVFLSASCFDSQDHSAFEMEEEEVDSKAHLRGLGGLAS | 1 | 1 |  |  |
| SF3A3 (protein) METILEQQRRYHEEKERLMDVMAKEMLTKKSTLRDQINSDHRTRAMQDRYMEVSGNLRDLYDDKDGLRKEELNAISGPNEFAEFYNRLKQIKEFHRKHPNEICVPMSVEFEELLKARENPSEEAQNLVEFTDEEGYGRYLDLHDCYLKYINLKASEKLDYITYLSIFDQLFDIPKERKNAEYKRYLEMLLEYLQDYTDRVKPLQDQNELFGKIQAEFEKKWENGTFPGWPKETSSALTHAGAHLDLSAFSSWEELASLGLDRLKSALLALGLKCGGTLEERAQRLFSTKGKSLESLDTSLFAKNPKSKGTKRDTERNKDIAFLEAQIYEYVEILGEQRHLTHENVQRKQARTGEEREEEEEEQISESESEDEENEIIYNPKNLPLGWDGKPIPYWLYKLHGLNINYNCEICGNYTYRGPKAFQRHFAEWRHAHGMRCLGIPNTAHFANVTQIEDAVSLWAKLKLQKASERWQPDTEEEYEDSSGNVVNKKTYEDLKRQGLL | 1 | 1 |  |  |
| ARCN1 (protein, UniProt P48444 2-511, looked up) Coatomer subunit delta: VLLAAAVCTKAGKAIVSRQFVEMTRTRIEGLLAAFPKLMNTGKQHTFVETESVRYVYQPMEKLYMVLITTKNSNILEDLETLRLFSRVIPEYCRALEENEISEHCFDLIFAFDEIVALGYRENVNLAQIRTFTEMDSHEEKVFRAVRETQEREAKAEMRRKAKELQQARRDAERQGKKAPGFGGFGSSAVSGGSTAAMITETIIETDKPKVAPAPARPSGPSKALKLGAKGKEVDNFVDKLKSEGETIMSSSMGKRTSEATKMHAPPINMESVHMKIEEKITLTCGRDGGLQNMELHGMIMLRISDDKYGRIRLHVENEDKKGVQLQTHPNVDKKLFTAESLIGLKNPEKSFPVNSDVGVLKWRLQTTEESFIPLTINCWPSESGNGCDVNIEYELQEDNLELNDVVITIPLPSGVGAPVIGEIDGEYRHDSRRNTLEWCLPVIDAKNKSGSLEFSIAGQPNDFFPVQVSFVSKKNYCNIQVTKVTQVDGNSPVRFSTETTFLVDKYEIL | 1 | 1 |  |  |
| NUP155 (protein, UniProt O75694 2-1391, looked up) Nuclear pore complex protein …: PSSLLGAAMPASTSAAALQEALENAGRLIDRQLQEDRMYPDLSELLMVSAPNNPTVSGMSDMDYPLQGPGLLSVPNLPEISSIRRVPLPPELVEQFGHMQCNCMMGVFPPISRAWLTIDSDIFMWNYEDGGDLAYFDGLSETILAVGLVKPKAGIFQPHVRHLLVLATPVDIVILGLSYANLQTGSGVLNDSLSGGMQLLPDPLYSLPTDNTYLLTITSTDNGRIFLAGKDGCLYEVAYQAEAGWFSQRCRKINHSKSSLSFLVPSLLQFTFSEDDPILQIAIDNSRNILYTRSEKGVIQVYDLGQDGQGMSRVASVSQNAIVSAAGNIARTIDRSVFKPIVQIAVIENSESLDCQLLAVTHAGVRLYFSTCPFRQPLARPNTLTLVHVRLPPGFSASSTVEKPSKVHRALYSKGILLMAASENEDNDILWCVNHDTFPFQKPMMETQMTAGVDGHSWALSAIDELKVDKIITPLNKDHIPITDSPVVVQQHMLPPKKFVLLSAQGSLMFHKLRPVDQLRHLLVSNVGGDGEEIERFFKLHQEDQACATCLILACSTAACDREVSAWATRAFFRYGGEAQMRFPTTLPPPSNVGPILGSPVYSSSPVPSGSPYPNPSFLGTPSHGIQPPAMSTPVCALGNPATQATNMSCVTGPEIVYSGKHNGICIYFSRIMGNIWDASLVVERIFKSGNREITAIESSVPCQLLESVLQELKGLQEFLDRNSQFAGGPLGNPNTTAKVQQRLIGFMRPENGNPQQMQQELQRKFHEAQLSEKISLQAIQQLVRKSYQALALWKLLCEHQFTIIVAELQKELQEQLKITTFKDLVIRDKELTGALIASLINCYIRDNAAVDGISLHLQDICPLLYSTDDAICSKANELLQRSRQVQNKTEKERMLRESLKEYQKISNQVDLSNVCAQYRQVRFYEGVVELSLTAAEKKDPQGLGLHFYKHGEPEEDIVGLQAFQERLNSYKCITDTLQELVNQSKAAPQSPSVPKKPGPPVLSSDPNMLSNEEAGHHFEQMLKLSQRSKDELFSIALYNWLIQVDLADKLLQVASPFLEPHLVRMAKVDQNRVRYMDLLWRYYEKNRSFSNAARVLSRLADMHSTEISLQQRLEYIARAILSAKSSTAISSIAADGEFLHELEEKMEVARIQLQIQETLQRQYSHHSSVQDAVSQLDSELMDITKLYGEFADPFKLAECKLAIIHCAGYSDPILVQTLWQDIIEKELSDSVTLSSSDRMHALSLKIVLLGKIYAGTPRFFPLDFIVQFLEQQVCTLNWDVGFVIQTMNEIGVPLPRLLEVYDQLFKSRDPFWNRMKKPLHLLDCIHVLLIRYVENPSQVLNCERRRFTNLCLDAVCGYLVELQSMSSSVAVQAITGNFKSLQAKLERLH | 1 | 1 |  |  |
